Measurements from PMC3217859.

By UniProt entry, the sequences of proteins in these tests, tags left out. Where a name states a change or a piece, a line headed by the entry shows the natural chain unless it says otherwise.
UniProt P67775: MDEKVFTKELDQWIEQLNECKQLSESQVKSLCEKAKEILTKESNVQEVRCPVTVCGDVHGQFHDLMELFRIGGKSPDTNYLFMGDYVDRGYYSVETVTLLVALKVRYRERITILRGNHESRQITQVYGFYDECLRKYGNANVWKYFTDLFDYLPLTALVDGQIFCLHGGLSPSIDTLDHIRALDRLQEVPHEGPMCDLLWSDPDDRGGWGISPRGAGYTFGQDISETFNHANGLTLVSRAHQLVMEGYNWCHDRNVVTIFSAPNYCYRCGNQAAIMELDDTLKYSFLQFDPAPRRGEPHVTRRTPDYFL

Columns and labels:
Assay in all cases: co-IP; anti-HA immunoprecipitates (12CA5 with protein A-Sepharose, or F7 anti-HA-agarose when probing for Mst3 or Mst4; 1.5 h, 4°C) of lysates (1% Nonidet P-40, 0.135 M NaCl, 10% glycerol, 20 mM Tris pH 8.0) of HEK293 cells transfected with HA-striatins; endogenous partners by immunoblot, partner/HA-striatin ratio by chemilumimager against wild type; 50 mM NaF and 100 nM okadaic acid in the lysis buffer in the phosphorylation experiments
[1] = target: T1, P132Stop striatin (human) (UniProt O43815)
T1 sequence: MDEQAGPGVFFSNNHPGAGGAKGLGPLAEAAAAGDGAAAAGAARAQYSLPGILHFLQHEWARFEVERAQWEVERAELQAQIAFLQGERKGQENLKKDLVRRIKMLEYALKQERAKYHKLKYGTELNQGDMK

[2] = target: T2, HA-tagged wild-type striatin (human) (UniProt O43815)
T2 sequence: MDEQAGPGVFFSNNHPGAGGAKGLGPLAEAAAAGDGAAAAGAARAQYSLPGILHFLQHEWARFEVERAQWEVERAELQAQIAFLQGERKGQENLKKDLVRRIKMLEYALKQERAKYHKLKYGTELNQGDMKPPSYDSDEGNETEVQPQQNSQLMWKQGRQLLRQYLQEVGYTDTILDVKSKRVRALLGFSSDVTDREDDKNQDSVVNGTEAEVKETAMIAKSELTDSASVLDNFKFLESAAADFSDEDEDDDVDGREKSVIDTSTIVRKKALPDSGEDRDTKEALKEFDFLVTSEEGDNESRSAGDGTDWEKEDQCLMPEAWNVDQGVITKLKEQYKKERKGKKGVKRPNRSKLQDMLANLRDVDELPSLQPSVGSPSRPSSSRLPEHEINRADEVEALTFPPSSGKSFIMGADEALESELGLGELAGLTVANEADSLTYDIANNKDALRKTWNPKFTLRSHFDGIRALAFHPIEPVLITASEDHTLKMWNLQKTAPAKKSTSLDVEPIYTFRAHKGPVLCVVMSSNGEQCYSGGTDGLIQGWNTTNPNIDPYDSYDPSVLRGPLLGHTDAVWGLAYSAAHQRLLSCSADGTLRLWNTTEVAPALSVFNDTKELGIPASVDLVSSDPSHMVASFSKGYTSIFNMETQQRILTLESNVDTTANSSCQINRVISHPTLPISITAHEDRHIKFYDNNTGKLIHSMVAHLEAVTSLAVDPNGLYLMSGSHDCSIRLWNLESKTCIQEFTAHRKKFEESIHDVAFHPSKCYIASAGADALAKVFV

[3] = target: T3, HA-tagged Δ(3-309) striatin (human) (UniProt O43815)
T3 sequence: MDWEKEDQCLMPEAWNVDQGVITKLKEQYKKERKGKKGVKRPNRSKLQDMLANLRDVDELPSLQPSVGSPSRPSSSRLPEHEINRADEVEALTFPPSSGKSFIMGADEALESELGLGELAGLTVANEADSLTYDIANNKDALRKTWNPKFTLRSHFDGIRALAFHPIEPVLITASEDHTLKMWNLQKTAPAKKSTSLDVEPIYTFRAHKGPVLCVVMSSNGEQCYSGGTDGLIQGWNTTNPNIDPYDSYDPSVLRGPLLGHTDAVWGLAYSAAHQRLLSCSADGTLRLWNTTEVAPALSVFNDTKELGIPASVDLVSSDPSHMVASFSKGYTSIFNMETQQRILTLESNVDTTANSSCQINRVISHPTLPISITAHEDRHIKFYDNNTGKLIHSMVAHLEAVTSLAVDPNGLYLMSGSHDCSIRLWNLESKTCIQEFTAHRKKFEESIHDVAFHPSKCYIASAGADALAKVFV

[4] = target: T4, HA-tagged Δ(70-116) striatin (human) (UniProt O43815)
T4 sequence: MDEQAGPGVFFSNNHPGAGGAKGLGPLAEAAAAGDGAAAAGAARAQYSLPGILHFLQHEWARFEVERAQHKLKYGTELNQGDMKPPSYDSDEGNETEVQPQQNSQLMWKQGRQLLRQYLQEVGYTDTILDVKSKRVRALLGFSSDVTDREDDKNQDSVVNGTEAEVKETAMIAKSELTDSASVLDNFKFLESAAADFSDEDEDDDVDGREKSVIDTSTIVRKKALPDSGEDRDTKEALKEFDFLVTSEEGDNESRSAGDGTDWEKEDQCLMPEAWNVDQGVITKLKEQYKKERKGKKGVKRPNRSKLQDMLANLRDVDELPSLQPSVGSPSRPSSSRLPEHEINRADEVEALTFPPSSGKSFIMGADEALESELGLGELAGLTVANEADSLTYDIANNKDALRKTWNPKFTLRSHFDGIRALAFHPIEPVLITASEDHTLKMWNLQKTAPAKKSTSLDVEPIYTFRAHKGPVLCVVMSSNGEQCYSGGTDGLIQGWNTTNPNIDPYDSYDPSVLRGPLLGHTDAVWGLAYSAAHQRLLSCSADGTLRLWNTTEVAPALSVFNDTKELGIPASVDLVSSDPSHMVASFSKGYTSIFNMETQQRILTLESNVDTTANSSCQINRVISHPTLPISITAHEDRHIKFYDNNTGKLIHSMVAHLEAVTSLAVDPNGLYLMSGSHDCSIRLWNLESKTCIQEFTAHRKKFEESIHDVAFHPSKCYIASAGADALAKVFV

[5] = target: T5, HA-tagged F457Stop striatin (human) (UniProt O43815)
T5 sequence: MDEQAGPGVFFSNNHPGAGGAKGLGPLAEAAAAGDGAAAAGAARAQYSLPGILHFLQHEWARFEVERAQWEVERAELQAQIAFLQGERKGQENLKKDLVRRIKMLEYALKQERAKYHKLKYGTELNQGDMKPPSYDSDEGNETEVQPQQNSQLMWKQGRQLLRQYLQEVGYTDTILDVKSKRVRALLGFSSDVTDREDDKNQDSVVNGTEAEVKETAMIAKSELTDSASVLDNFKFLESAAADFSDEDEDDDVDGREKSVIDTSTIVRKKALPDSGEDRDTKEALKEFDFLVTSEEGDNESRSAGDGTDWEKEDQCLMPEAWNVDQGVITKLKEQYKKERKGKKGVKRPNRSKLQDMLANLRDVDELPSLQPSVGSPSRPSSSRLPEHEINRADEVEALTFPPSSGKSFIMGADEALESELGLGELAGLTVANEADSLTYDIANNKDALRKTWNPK

[6] = target: T6, wild-type striatin with an N-terminal double HA epitope tag (modified pLenti6/V5-D-Topo plasmid) (human) (UniProt O43815)
T6 sequence: T2 sequence

[7] = target: HA-tagged Δ(148-166) striatin (human) (UniProt O43815)
[8] = target: T7, 46-131 striatin (human) (UniProt O43815)
T7 sequence: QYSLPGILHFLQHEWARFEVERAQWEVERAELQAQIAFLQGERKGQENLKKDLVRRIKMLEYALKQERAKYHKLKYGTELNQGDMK

[9] = target: T8, HA-tagged K270Stop striatin (human) (UniProt O43815)
T8 sequence: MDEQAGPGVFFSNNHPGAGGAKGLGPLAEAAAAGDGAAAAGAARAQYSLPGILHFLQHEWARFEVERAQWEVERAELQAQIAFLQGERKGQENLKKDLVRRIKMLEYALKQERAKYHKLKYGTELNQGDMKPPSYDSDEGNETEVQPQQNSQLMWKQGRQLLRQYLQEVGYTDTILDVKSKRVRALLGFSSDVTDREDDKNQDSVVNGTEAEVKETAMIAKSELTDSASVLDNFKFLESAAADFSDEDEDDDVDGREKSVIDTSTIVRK

Substance: PP2A C subunit (from UniProt P67775) (enzyme)
- binding [1]: binds
- binding [2]: binds
- binding [3]: no binding
- binding [4]: no binding
- binding [5]: binds
- binding [6]: binds
- binding [7]: binds
- binding [8]: binds
- binding [9]: binds

No constants are given. Whether binding was seen depends on the method and setting. Binding seen in cells or lysates may run through a third protein. For part of these data: Binding calls can cover weak binding; strength is not graded here. For part of these data: Sequences can lack the tags named with a protein.
